# PubChem BioAssay AID540303 (National Center for Advancing Translational Sciences (NCATS), 2011)
# The whole screen tested about 330,000 compounds, of which about 1,000 (0.3%) were called active. Inconclusive means that the source gave no clear call. Such entries were picked first, then a sample of the others. The call rests on the fitted dose curve; in most records, active means well fitted inhibition curve with a large enough effect; inconclusive means small, poorly fitted or top-dose-only effect; inactive means no such curve, though single readings can be large or run the other way; tested in mouse RAW 264.7 cells. Where the call is inconclusive, the potency comes from a doubtful curve fit.
# Assay: qHTS for Inhibitors of Cell Surface uPA Generation; further: nearly all actives have a fitted effect of over 55% in size
# Settings: cell surface uPA generation assay; series mostly up to 38.3 µM; activity change, negative = inhibition: at the top concentration
# Outline: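 Murine RAW 264.7 cells are treated for 24 h with compound up to 38.3 uM final. Cell ATP, measured by ATP-Lite, remains high if blocking the uPA cascade prevents LF from reaching the cytoplasm.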
# On the % scale 0 is the no-effect control and ±100 the full control effect; potency means the concentration at half of the fitted maximal effect.
Structure (SMILES),Potency,"activity change, negative = inhibition"
Cc1cccc(NC(=O)Nc2ccc(C#N)cc2)n1,"inconclusive: 5.01 µM [inhibitor, full curve, poor fit]",–
CCOC(=O)CCCCC(=O)c1[nH]c(=O)[nH]c1CSc1nc(C)cc(C)n1,–,inactive: -3.57%
C=CCCN(Cc1ccccc1)S(=O)(=O)c1ccccc1Br,"inconclusive: 10 µM [inhibitor, partial curve, poor fit]",–
CCCCC(=O)N1C/C=C\C(c2ccc(OC)cc2)N(Cc2ccc(F)cc2)C(=O)[C@H]1Cc1ccccc1 (stereo partly specified),"inconclusive: 10 µM [inhibitor, single point]",–
O=C(C[n+]1ccccc1)N/N=C/c1ccccc1Cl,"inconclusive: 0.316 µM [inhibitor, full curve, poor fit]",–
CCCC(=O)Nc1nc2ccc(OCC)cc2s1,"inconclusive: 3.98 µM [inhibitor, partial curve, poor fit]",–
CCOc1ccc(N(CC(=O)Nc2ccccc2C)S(=O)(=O)c2c(C)noc2C)cc1,"inconclusive: 4.47 µM [inhibitor, full curve, poor fit]",–
Cc1ccc(Cn2c(=N)c(C(=O)NCC3CCCO3)cc3c(=O)n4cccc(C)c4nc32)cc1 (stereo unspecified),–,inactive: -10.1%
COc1cc(C2c3cc4c(cc3OC(N3CCCC3)C2C)OCO4)cc(OC)c1O (stereo unspecified),–,inactive: -13.9%
COc1ccc(/C=N/NC(=O)c2cc(-c3ccccc3OC(C)C)nc3ccccc23)cc1CN1CCOCC1,"inconclusive: 11.2 µM [inhibitor, single point]",–
c1ccc(-c2cc(-c3nnc4n3N=C(c3ccc5ccccc5c3)CS4)[nH]n2)cc1,"inconclusive: 2.51 µM [inhibitor, partial curve, poor fit]",–
O=C(Nc1nccs1)c1ccc(COc2c(F)c(F)cc(F)c2F)o1,"inconclusive: 10 µM [inhibitor, partial curve]",–
O=C(N/N=C/c1ccccc1)c1[nH]c2ccc(Br)cc2c1-c1ccccc1,–,inactive: -13.8%
CN(Cc1nccn1C)C(=O)CC1C(=O)NCCN1CC(c1ccccc1)c1ccccc1 (stereo unspecified),"inconclusive: 2 µM [inhibitor, full curve, poor fit]",–
Cc1cccc(C)c1Nc1c(-c2ccccn2)nc2ccccn12,active: 4.47 µM,–
N/C(=N\OC(=O)c1ccc(Cl)cc1)c1[nH]ncc1Br,"inconclusive: 10 µM [inhibitor, partial curve, poor fit]",–
CC1=C/C(=C(\c2cc(C)c(O)c(Br)c2)c2ccccc2S(=O)(=O)O)C=C(Br)C1=O,"inconclusive: 12.6 µM [inhibitor, partial curve]",–
CCCc1ncc(CN2CCCCC2C(=O)Nc2ccc(Oc3ccccc3)nc2)cn1 (stereo unspecified),–,inactive: 5.6%
Cc1ccccc1NC(=O)c1ccc2snnc2c1,"inconclusive: 2.82 µM [inhibitor, single point]",–
O=C(Cc1c(F)cccc1Cl)Nc1cc(S(=O)(=O)N2CCOCC2)ccc1N1CCCC1,"inconclusive: 1.78 µM [inhibitor, partial curve, poor fit]",–
Cc1c(CN2CCCC(CO)(Cc3cccc(Cl)c3)C2)cnn1C (stereo unspecified),–,inactive: -0.232%

Structure (SMILES),Potency,"activity change, negative = inhibition"
Cc1nc(C)c(C(=O)Nc2ncc([N+](=O)[O-])s2)o1,–,inactive: -2.89%
O=C(CSc1ncnc2c1nnn2-c1ccc(F)cc1)NCc1ccco1,–,inactive: -5.68%
Cc1cc(NC(=O)CSCC(=O)N(c2cccc(Cl)c2)C(C(=O)NC2CCCCC2)c2ccc(O)c(O)c2)no1 (stereo unspecified),–,inactive: 3.91%
O=C(Cn1ncc2c1-c1ccccc1OC2)Nc1ccc(S(=O)(=O)N2CCCCC2)cc1,"inconclusive: 3.98 µM [inhibitor, partial curve]",–
Nc1ccc(Oc2ccc([N+](=O)[O-])cc2[N+](=O)[O-])cc1,"inconclusive: 3.55 µM [inhibitor, partial curve, poor fit]",–
Cc1nn(-c2ccc(Cl)cc2)c(Cl)c1/C=C(\C#N)C(N)=O,"inconclusive: 14.1 µM [inhibitor, partial curve, poor fit]",–
CCC(C)CCN1C(Nc2ccccc2)=NC[C@@H]1Cc1ccccc1 (stereo partly specified),"inconclusive: 14.1 µM [inhibitor, single point]",–
CC1CCCCC1NC(=O)/C(C#N)=C/c1ccc2c(c1)OCCO2 (stereo unspecified),"inconclusive: 0.501 µM [inhibitor, full curve, poor fit]",–
COc1ccc([C@H]2/C=C\CN(C(=O)c3ccc(C)cc3)[C@@H](C)C(=O)N2Cc2ccc(F)cc2)cc1,"inconclusive: 10 µM [inhibitor, single point]",–
CCOc1ccc(OCC)c(Nc2cc(C)nc3nc(C)nn23)c1,"inconclusive: 31.6 µM [inhibitor, single point]",–
C=C1CCN([C@H](C(=O)OCc2cccc(C)c2)C(C)C)S(=O)(=O)c2ccccc21,"inconclusive: 12.6 µM [inhibitor, single point]",–
Cc1nc2cc(N)ccc2n1C1CCCCC1,"inconclusive: 7.08 µM [inhibitor, single point]",–
COC(=O)Cc1[nH]n(-c2nc3ccccc3s2)c(=O)c1C(C)=Nc1ccc(Cl)cc1,"inconclusive: 11.2 µM [inhibitor, partial curve]",–
O=C(NCc1ccccc1C(F)(F)F)C1CCC(=O)N(C2CC2)C1 (stereo unspecified),–,inactive: 14.5%
CC1CCCN(C(C(=O)Nc2ccc(C(C)C)cc2)c2ccc3c(c2)OCO3)C1 (stereo unspecified),"inconclusive: 11.2 µM [inhibitor, single point]",–
O=c1cc(-c2cccc(F)c2)[nH]c2ccccc12,"inconclusive: 0.0562 µM [inhibitor, full curve, poor fit]",–
O=c1oc2c(O)c(O)cc3c(=O)oc4c(O)c(O)cc1c4c23,–,inactive: -17.1%
Cc1ccc(-c2cc(C(=O)N(C)CC(=O)Nc3ccccc3Br)c3ccccc3n2)o1,"inconclusive: 5.62 µM [inhibitor, single point]",–
Cc1cnc(NC(=O)c2ccc3c(c2)OCCO3)s1,"inconclusive: 1 µM [inhibitor, full curve, poor fit]",–
C[C@H](CO)N1C[C@H](C)[C@@H](CN(C)S(=O)(=O)c2ccccc2)Oc2ccc(NS(=O)(=O)c3ccc(F)cc3)cc2C1=O,"inconclusive: 12.6 µM [inhibitor, single point]",–

# Another view of some results above.
Structure (SMILES)	Potency	activity change, negative = inhibition
O=C(Cn1ncc2c1-c1ccccc1OC2)Nc1ccc(S(=O)(=O)N2CCCCC2)cc1	inconclusive: 3.98 µM [inhibitor, partial curve]	–
COc1ccc([C@H]2/C=C\CN(C(=O)c3ccc(C)cc3)[C@@H](C)C(=O)N2Cc2ccc(F)cc2)cc1	inconclusive: 10 µM [inhibitor, single point]	–
Cc1ccc(-c2cc(C(=O)N(C)CC(=O)Nc3ccccc3Br)c3ccccc3n2)o1	inconclusive: 5.62 µM [inhibitor, single point]	–
